No constants are given. Whether binding was seen depends on the method and setting. In cells and extracts the contact can be indirect. These calls come from enrichment with a bait or labelling near it, and not all partners need be listed.
Target: orosomucoid 1 (ORM1)–Flag (human) (UniProt P02763)
Assay: affinity purification with mass spectrometry; coIP from lysate of cells transfected with ORM1-Flag for 24 h (cell line not stated), primary antibody overnight at 4 °C, Protein G-Agarose; SDS-PAGE, coomassie brilliant blue; band around 50 kDa that differed between IgG and IP lane cut, trypsin, LC-MS/MS

Protein sequences, listed by entry. Tags and fused reporters are not part of them.
UniProt P02763: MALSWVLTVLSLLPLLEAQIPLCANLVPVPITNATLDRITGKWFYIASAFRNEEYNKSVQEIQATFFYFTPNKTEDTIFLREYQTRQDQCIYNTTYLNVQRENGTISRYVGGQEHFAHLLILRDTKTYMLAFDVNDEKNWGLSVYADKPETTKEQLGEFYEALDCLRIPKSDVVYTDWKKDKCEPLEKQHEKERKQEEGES
UniProt P08670: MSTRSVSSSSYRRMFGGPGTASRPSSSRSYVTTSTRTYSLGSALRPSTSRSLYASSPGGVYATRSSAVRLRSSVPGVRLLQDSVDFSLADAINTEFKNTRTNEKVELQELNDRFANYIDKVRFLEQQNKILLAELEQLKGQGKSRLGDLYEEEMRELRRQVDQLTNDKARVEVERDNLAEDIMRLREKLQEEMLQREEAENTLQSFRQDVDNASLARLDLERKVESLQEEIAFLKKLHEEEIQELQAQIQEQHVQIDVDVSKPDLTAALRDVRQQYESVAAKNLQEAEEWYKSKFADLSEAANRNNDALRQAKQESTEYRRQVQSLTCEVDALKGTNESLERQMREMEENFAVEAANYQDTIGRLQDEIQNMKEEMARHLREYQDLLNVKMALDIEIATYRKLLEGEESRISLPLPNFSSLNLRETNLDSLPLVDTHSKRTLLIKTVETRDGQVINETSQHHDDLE

## vimentin (VIM) (from UniProt P08670 1-466)
  binding: binds

From article PMC12463022
